Measured values: article PMC6591413
No constants are given. Whether binding was seen depends on the method and setting. In cells and extracts the contact can be indirect. Some results given as binding are weak or reduced against the parent protein; the word gives no strength.

The chains behind the UniProt entries cited, without tags or fusion partners.
UniProt P15863: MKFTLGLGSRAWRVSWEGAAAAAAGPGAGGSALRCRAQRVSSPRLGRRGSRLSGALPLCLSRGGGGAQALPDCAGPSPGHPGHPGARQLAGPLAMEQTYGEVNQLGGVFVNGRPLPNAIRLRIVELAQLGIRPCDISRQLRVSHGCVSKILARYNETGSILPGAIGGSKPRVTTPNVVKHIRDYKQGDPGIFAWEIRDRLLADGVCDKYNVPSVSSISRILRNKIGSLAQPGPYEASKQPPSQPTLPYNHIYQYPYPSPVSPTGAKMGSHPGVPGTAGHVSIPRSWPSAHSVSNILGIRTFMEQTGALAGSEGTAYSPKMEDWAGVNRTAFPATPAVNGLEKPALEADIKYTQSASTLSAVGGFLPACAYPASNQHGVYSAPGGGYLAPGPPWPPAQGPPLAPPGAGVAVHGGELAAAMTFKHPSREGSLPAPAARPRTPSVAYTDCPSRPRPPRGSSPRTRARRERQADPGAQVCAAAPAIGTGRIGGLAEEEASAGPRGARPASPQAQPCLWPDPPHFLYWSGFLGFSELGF
UniProt Q9UPS6: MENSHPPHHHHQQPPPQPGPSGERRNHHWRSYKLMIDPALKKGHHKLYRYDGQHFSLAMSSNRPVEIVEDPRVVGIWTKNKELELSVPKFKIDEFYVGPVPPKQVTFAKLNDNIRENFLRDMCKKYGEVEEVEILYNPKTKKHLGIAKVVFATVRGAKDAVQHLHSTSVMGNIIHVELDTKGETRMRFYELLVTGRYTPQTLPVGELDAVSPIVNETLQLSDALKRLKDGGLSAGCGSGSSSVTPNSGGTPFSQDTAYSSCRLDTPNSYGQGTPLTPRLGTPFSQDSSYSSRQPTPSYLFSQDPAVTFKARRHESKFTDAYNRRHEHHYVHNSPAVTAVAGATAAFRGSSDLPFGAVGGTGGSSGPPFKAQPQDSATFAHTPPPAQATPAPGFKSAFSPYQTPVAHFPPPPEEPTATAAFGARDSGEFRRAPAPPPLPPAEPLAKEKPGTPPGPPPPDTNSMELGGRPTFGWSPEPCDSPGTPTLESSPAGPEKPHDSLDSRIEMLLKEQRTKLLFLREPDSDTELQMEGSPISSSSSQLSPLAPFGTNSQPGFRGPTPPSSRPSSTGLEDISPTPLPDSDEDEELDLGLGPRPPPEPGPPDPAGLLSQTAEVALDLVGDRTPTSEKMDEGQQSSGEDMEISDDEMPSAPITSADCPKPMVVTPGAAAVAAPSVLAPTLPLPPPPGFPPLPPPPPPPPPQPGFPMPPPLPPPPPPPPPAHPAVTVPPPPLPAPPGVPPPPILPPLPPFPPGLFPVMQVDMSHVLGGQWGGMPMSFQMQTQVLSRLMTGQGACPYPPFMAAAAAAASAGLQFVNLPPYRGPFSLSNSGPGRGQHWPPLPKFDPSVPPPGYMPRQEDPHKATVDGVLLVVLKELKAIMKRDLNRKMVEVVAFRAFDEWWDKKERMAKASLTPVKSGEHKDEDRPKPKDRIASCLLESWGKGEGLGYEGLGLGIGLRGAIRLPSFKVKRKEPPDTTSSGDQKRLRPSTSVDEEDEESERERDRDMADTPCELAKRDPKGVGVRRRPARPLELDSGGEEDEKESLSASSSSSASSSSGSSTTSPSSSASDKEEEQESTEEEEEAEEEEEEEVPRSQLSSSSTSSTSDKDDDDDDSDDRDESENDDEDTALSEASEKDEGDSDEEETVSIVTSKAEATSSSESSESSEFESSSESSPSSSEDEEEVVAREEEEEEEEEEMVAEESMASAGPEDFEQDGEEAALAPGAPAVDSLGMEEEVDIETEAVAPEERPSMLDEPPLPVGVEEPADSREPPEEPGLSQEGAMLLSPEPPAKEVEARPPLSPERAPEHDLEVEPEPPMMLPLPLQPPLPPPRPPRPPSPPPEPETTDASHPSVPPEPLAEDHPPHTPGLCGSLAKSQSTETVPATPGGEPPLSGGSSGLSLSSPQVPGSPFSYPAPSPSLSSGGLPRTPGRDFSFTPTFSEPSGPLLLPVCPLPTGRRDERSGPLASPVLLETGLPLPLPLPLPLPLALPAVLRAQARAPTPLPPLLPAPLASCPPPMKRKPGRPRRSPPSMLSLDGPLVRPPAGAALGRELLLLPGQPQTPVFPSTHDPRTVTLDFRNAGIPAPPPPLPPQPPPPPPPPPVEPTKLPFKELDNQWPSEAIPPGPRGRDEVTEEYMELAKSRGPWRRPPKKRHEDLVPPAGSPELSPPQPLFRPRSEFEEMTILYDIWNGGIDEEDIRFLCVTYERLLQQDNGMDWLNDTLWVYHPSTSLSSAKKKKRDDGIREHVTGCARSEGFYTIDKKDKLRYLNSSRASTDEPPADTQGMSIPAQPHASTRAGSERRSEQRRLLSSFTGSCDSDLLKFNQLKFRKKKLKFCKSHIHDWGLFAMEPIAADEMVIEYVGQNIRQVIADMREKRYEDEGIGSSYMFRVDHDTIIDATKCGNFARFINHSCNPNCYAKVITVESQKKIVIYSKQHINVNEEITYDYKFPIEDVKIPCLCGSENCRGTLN
UniProt O15047: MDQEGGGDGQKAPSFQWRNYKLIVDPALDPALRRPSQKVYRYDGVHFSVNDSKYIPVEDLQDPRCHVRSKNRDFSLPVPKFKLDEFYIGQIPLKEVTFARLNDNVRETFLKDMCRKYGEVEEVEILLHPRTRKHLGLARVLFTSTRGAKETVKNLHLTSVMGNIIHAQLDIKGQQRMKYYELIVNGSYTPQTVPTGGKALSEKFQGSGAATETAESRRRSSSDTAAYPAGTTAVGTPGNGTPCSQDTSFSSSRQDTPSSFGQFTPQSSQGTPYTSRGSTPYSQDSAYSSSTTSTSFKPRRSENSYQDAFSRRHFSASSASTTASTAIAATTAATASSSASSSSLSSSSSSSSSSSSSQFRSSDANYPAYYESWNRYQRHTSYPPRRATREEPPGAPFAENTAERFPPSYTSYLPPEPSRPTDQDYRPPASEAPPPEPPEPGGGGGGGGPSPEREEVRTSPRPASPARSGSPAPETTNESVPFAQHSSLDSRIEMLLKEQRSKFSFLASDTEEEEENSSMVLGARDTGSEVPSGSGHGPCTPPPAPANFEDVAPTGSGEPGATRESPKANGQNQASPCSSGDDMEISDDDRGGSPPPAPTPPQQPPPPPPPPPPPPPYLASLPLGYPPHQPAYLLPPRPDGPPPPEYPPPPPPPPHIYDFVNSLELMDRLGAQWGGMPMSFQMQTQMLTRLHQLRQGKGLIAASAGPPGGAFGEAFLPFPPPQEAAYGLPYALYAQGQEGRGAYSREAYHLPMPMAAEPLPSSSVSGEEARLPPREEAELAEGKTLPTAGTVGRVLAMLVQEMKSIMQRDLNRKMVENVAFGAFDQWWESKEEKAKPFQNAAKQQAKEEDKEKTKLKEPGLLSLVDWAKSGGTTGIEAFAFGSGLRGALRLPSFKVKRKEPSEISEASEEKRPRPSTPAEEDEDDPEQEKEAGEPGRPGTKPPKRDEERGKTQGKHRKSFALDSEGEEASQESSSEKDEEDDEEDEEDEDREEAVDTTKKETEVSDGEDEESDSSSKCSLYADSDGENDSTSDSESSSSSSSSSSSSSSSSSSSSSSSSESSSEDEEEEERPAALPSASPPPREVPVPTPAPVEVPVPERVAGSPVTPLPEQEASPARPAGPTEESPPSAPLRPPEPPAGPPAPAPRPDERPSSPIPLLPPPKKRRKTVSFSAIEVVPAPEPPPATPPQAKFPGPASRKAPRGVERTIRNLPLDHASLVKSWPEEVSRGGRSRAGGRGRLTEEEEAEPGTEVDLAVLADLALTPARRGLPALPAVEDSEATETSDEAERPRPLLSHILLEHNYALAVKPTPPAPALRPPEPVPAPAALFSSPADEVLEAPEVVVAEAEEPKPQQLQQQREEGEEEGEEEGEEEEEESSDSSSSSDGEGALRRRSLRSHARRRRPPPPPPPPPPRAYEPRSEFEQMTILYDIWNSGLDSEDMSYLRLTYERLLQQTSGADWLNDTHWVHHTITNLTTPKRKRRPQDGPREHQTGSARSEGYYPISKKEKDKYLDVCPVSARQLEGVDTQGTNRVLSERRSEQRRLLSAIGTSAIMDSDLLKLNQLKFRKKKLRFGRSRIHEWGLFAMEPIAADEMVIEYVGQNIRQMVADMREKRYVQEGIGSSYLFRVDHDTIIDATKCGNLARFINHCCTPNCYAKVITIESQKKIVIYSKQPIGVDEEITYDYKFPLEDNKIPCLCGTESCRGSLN

Biological target: Paired Box-1 (PAX1), FLAG-tagged, full-length cDNA in pCMV-Tag 2B (human) (UniProt P15863)
Experiment: co-IP; anti-FLAG antibody used for immunoprecipitation of FLAG-PAX1; blots with antibodies against the histone H3K4 HMT complex and DNA demethylases (Fig. 5E)

| Substance | binding |
| --- | --- |
| SET1B (from UniProt Q9UPS6 1-1966) | binds |
| MLL4 (from UniProt Q9UMN6 1-2715) | no binding |
| SET1A (from UniProt O15047 1-1707) | no binding |
| MLL1 (from UniProt Q03164 1-3969) | no binding |
